{
  "sequences": {"note": "The chains behind the UniProt entries cited, without tags or fusion partners. Where a name states a change or a piece, a line headed by the entry shows the natural chain unless it says otherwise.", "UniProt Q92783": "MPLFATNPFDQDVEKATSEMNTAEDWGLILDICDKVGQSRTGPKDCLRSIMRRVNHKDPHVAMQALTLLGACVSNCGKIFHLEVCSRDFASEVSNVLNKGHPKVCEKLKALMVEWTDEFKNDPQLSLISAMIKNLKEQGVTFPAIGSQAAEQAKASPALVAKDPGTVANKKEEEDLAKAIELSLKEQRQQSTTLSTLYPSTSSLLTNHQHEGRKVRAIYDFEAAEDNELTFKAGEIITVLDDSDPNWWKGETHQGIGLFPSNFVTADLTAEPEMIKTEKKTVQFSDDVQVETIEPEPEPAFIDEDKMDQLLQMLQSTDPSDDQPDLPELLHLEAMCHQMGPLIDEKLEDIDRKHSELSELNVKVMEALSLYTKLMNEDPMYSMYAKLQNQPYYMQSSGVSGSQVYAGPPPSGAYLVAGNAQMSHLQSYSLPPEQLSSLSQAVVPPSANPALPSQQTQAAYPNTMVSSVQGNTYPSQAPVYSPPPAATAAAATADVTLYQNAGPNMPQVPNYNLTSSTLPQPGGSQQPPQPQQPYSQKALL", "UniProt P49407": "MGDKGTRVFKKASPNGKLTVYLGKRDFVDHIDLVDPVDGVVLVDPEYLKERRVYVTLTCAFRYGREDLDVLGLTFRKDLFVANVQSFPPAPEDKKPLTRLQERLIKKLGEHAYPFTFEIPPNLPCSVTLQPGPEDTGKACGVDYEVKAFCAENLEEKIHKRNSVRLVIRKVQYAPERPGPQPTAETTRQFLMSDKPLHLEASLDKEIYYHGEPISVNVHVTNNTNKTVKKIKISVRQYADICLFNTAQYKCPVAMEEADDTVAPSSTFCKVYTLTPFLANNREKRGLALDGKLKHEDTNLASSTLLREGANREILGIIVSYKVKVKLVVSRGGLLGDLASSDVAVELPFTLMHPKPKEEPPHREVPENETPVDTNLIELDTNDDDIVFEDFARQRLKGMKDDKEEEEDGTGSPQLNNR"},
  "source": "paper PMC10755771",
  "target": "STAM1-His K136R (UniProt Q92783)",
  "assay": "pull-down; purified βarr1 (0.1 μM) incubated with WT or K136R STAM1-His (0.3 μM in the methods, 3 μM in the legend) in TBS (20 mM Tris-HCl pH 7.5, 150 mM NaCl) for 20 min at 37 °C; complexes isolated on TALON cobalt resin, 4 °C 1 h; eluted with 250 mM imidazole; immunoblotting; both purified",
  "note": "No constants are given. Whether binding was seen depends on the method and setting. Binding can be weak; no strength is given.",
  "data": [
    {"substance": "βarrestin1 (untagged, wild type) (from UniProt P49407 1-418)", "values": [
      {"measurement": "binding", "value": "binds"}
    ]}
  ]
}
